Data: PMC5983347
No constants are given. Whether binding was seen depends on the method and setting. In cells and extracts the contact can be indirect. Some results given as binding are weak or reduced against the parent protein; the word gives no strength. Where a sequence is shown, tags or fusion partners need not be part of it.

The chains behind the UniProt entries cited, without tags or fusion partners.
UniProt O15379: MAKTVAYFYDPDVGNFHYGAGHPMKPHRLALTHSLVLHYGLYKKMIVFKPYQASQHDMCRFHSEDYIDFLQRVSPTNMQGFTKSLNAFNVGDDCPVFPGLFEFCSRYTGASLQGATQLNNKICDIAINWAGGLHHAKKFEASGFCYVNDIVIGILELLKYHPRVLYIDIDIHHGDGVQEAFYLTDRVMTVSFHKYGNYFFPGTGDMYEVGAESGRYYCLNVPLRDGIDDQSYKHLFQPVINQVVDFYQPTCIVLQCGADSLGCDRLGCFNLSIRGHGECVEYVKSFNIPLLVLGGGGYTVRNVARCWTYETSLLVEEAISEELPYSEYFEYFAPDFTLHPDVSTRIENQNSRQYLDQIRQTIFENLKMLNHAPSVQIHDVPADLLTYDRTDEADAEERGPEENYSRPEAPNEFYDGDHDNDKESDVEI

Target: HDAC3 (human (endogenous in HEK293)) (UniProt O15379)
Experiment: co-IP; HEK293 cells transfected with HA-REV-ERBα and/or SENP-1, treated with 10 μM GSK1362 and/or 5 ng/ml IL-1β for 4 hours; lysate in IP lysis buffer (150 mM NaCl, 20 mM Tris-HCl, 10% glycerol, 1% Triton X-100, NEM); anti-HDAC3 or rabbit IgG, protein A beads, 4°C; blot for REV-ERBα

binding: binds
B1: HA-tagged REV-ERBα (protein, UniProt P20393 1-614)
chain: MTTLDSNNNTGGVITYIGSSGSSPSRTSPESLYSDNSNGSFQSLTQGCPTYFPPSPTGSLTQDPARSFGSIPPSLSDDGSPSSSSSSSSSSSSFYNGSPPGSLQVAMEDSSRVSPSKSTSNITKLNGMVLLCKVCGDVASGFHYGVHACEGCKGFFRRSIQQNIQYKRCLKNENCSIVRINRNRCQQCRFKKCLSVGMSRDAVRFGRIPKREKQRMLAEMQSAMNLANNQLSSQCPLETSPTQHPTPGPMGPSPPPAPVPSPLVGFSQFPQQLTPPRSPSPEPTVEDVISQVARAHREIFTYAHDKLGSSPGNFNANHASGSPPATTPHRWENQGCPPAPNDNNTLAAQRHNEALNGLRQAPSSYPPTWPPGPAHHSCHQSNSNGHRLCPTHVYAAPEGKAPANSPRQGNSKNVLLACPMNMYPHGRSGRTVQEIWEDFSMSFTPAVREVVEFAKHIPGFRDLSQHDQVTLLKAGTFEVLMVRFASLFNVKDQTVMFLSRTTYSLQELGAMGMGDLLSAMFDFSEKLNSLALTEEELGLFTAVVLVSADRSGMENSASVEQLQETLLRALRALVLKNRPLETSRFTKLLLKLPDLRTLNNMHSEKLLSFRVDAQ
